Measurements from publication PMC5473929.
No constants are given. Whether binding was seen depends on the method and setting. In cells and extracts the contact can be indirect. Some results given as binding are weak or reduced against the parent protein; the word gives no strength.

Chains of the proteins cited; added tags and fusions are not shown.
UniProt P85037: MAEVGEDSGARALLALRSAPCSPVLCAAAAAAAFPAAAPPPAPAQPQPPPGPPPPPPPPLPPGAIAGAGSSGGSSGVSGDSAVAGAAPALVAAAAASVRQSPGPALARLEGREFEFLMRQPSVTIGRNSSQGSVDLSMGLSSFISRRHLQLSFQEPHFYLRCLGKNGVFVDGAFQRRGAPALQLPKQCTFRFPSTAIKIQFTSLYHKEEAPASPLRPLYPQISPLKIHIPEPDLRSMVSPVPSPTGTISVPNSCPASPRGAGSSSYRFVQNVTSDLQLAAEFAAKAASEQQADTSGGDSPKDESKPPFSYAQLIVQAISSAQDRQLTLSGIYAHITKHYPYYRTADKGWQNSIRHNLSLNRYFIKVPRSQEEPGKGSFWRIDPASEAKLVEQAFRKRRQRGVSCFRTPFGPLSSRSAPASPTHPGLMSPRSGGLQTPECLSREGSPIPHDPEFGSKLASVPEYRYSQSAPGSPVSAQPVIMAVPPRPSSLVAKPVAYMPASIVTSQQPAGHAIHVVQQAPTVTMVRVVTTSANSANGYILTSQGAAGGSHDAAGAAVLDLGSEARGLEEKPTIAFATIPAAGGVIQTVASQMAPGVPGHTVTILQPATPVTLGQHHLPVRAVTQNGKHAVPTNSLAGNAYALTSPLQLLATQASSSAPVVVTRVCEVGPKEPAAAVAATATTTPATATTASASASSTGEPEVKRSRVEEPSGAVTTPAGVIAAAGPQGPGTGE

Biological target: FOXK1 (Forkhead box k1), endogenous (human (endogenous in HEK 293T, LoVo, SW1116)) (UniProt P85037)
Assay: co-IP; whole cell lysates of SW1116 and LoVo cells, endogenous proteins; immunoprecipitation with anti-FOXK1 antibody (normal rabbit IgG as control), protein A-agarose, 4 °C; western blot with anti-RUFY3

- binding: binds
B1: endogenous RUFY3 (protein, UniProt Q7L099 1-469)
chain: MSALTPPTDMPTPTTDKITQAAMETIYLCKFRVSMDGEWLCLRELDDISLTPDPEPTHEDPNYLMANERMNLMNMAKLSIKGLIESALNLGRTLDSDYAPLQQFFVVMEHCLKHGLKAKKTFLGQNKSFWGPLELVEKLVPEAAEITASVKDLPGLKTPVGRGRAWLRLALMQKKLSEYMKALINKKELLSEFYEPNALMMEEEGAIIAGLLVGLNVIDANFCMKGEDLDSQVGVIDFSMYLKDGNSSKGTEGDGQITAILDQKNYVEELNRHLNATVNNLQAKVDALEKSNTKLTEELAVANNRIITLQEEMERVKEESSYILESNRKGPKQDRTAEGQALSEARKHLKEETQLRLDVEKELEMQISMRQEMELAMKMLEKDVCEKQDALVSLRQQLDDLRALKHELAFKLQSSDLGVKQKSELNSRLEEKTNQMAATIKQLEQSEKDLVKQAKTLNSAANKLIPKHH
